Some of the results follow.
B1: il10ra_site1_normal_mot_HHH_b1_01082_af2_000000031_0001_3_19_H_._HHH_b2_08025_0001_0000100013_0000001_0 (protein)
chain: SSSSSDLEEEVEELLEEARHIEDPEERYKVLKEAIEVASERGDPELFRLIMRFLEQVFRGSSSSS
B2: il10ra_site1_sap_26_mot_HHH_b2_06321_af2_000000133_0001_42_55_H_._HHH_b1_00003_af2_0001_0000400008_0000001_0_0001_af2pred_0001 (protein)
chain: SSSSSSEEEELEEFVEELVEKFKLSEEKKKALEYLARLLLELGASPEEVQRSLENAARLLSSSSS
B3: il10ra_site1_sap_8_mot_HHH_b1_06978_af2_000000172_0001_1_16_H_._HHH_b1_05317_af2_0001_0000100002_0000001_0_0001 (protein)
chain: SSSSSQEVYELLKEAIELLSEGNPEEAEKVLEEAEELAREENDMVLLVVIEFLERLIKRQSSSSS
B4: il10ra_site1_normal_mot_HHH_b2_00612_000000251_0001_1_14_H_._HHH_b2_04981_0001_0000400040_0000001_0_af2pred_0001 (protein)
chain: SSSSDEEFEEVRKLLEEASELAQRGDREEAERLVEEAIELAREGGNEQLTRSAEYLLELIRSSSS
B5: il10ra_site1_normal_mot_HHH_b2_04013_af2_000000040_0001_22_39_H_._HHH_b2_02292_af2_0001_0000200014_0000001_0 (protein)
chain: SSSSDEEEAEELVKEAEEELEKLLKRNAEEAFELLRRVIERLIELGNPEAARRLARFFVEVSSSS
B6: il10ra_site1_normal_mot_HHH_b2_04251_af2_000000037_0001_42_56_H_._HHH_b1_07770_0001_0000300015_0000002_0 (protein)
chain: SSSSSDEEVRELIEEAKELLERGDPEEALKVLQEASRLAIELADPELTRLVIEVARLLDSSSSSS
B7: il10ra_site1_sap_20_mot_HHH_b2_08144_af2_000000046_0001_38_52_H_._HHH_b2_04244_0001_0000400048_0000001_0_0001 (protein)
chain: SSSSSDLEEIWRLIREALELRANGNPEEAEKLVEEAKEIAEEAGDPALRFIVEALERAVRSSSSS
B8: il10ra_site1_normal_mot_HHH_b1_06994_000000193_0001_40_55_H_._HHH_b1_01501_0001_0000300017_0000002_0 (protein)
chain: SSSSDQLEELVRAALRFVEQAYEAGDPAWEHRVRALLQALRREGDEELVEEVEELLEKLRSSSSS
B9: il10ra_site1_normal_mot_HHH_b2_00943_af2_000000149_0001_1_17_H_._HHH_b1_08613_af2_0001_0000500010_0000002_0_af2pred_0001 (protein)
chain: SSSSSSEAKLLFEAIRLVAEVIKHGDPELEEEAEEFIREVIKKVKDPHAQEALEYLLENVSSSSS
B10: il10ra_site1_normal_mot_8756ee2cf497b5429c717dfc0c0bcfd6_0001_000000186_0001_1_13_H_._HHH_b1_01406_af2_0001_0000200006_0000002_0 (protein)
chain: SSSSSTQALELLREVVRLHAEGNPEEAEKLIEEAEKVAEEEGNDVILVQLEYLLRHIERSSSSSS
B11: il10ra_site1_normal_mot_HHH_b2_05323_000000159_0001_1_18_H_._HHH_b2_05518_af2_0001_0000100006_0000002_0 (protein)
chain: SSSSDEEQQELLELLRELFELALRGDEEEARRLAEELLELARELNDERVFRIVKDQQEVLSSSSS
B12: il10ra_site1_normal_mot_HHH_b1_07466_000000214_0001_1_19_H_._HHH_b1_01142_0001_0000100007_0000001_0 (protein)
chain: SSSSSDVEELEELVEELIEELDDPRDRRKLELTLRFARALLENGDPEAARRLLRAVLEALSSSSS
B13: il10ra_site1_normal_mot_HHH_b1_05937_af2_000000262_0001_20_37_H_._HHH_b1_08598_0001_0000200009_0000001_0 (protein)
chain: SSSSSSSDWLELVIEALRLLFKKRNAELLQELHRLAKEIARHGDPELEKELEEFLEEISSSSSSS
B14: il10ra_site1_sap_26_mot_674797ffa33fc4f31d963a7257083862_0001_000000202_0001_1_12_H_._HHH_b2_05362_0001_0000600049_0000001_0_0001 (protein)
chain: SSSSSEESEEFTEEVKEELERLLKEGDPDEAFKLLEEAIKFLLELGDDEAAHRLVELFQRTSSSS
B15: il10ra_site1_sap_16_mot_HHH_b1_03328_af2_000000129_0001_1_21_H_._963dea14d5f61e40fbb13539fee36e1a_0001_0001_0000100003_0000002_0_0001 (protein)
chain: SSSSDRAVEEIWRLLREALRIDDLEEARELVEEAQELAEERNNRVMRKVIEFLLEQLRRQSSSSS
B16: il10ra_site1_sap_8_mot_HHH_b2_03038_000000109_0001_1_20_H_._HHH_b1_05254_0001_0000400044_0000001_0_0001_af2pred_0001 (protein)
chain: SSSSSEEQERINELLREAAELLDEGDPEEARELVEEALELAEEAGSVVAAVAARFLLKLINSSSS
B17: il10ra_site1_sap_13_mot_8756ee2cf497b5429c717dfc0c0bcfd6_0001_000000186_0001_1_13_H_._HHH_b1_01047_0001_0000200013_0000001_0_0001 (protein)
chain: SSSSDEEERRVEELFEEAEELYEEGDPREAARVLQEAVRIALEAGNEELLQAIWRLVRELKSSSS
B18: il10ra_site1_normal_mot_HHH_b2_01999_000000006_0001_1_18_H_._HHH_b1_02372_0001_0000200023_0000001_0 (protein)
chain: SSSSDVEERASEVAIEVLRIAIRLSDPEVFQEVYELFRRIIREGDPELLEELEELLERLRSSSSS
B19: il10ra_site1_sap_20_mot_HHH_b2_00441_000000147_0001_1_18_H_._HHH_b2_06532_0001_0000500051_0000002_0_0001 (protein)
chain: SSSSSDEEVWELLREALELLANGNPEEAEEVVEEAERLAKEAGSRVMRLQVEFLLRAIRLSSSSS
B20: il10ra_site1_normal_mot_HHH_b2_06857_af2_000000179_0001_42_54_H_._HHH_b2_07752_af2_0001_0000500038_0000002_0 (protein)
chain: SSSSNELHEELYELIRKAAELARNGNPEEAEKVLEEARKIAEELNNELAEFQIRFLERLLSSSSS
B21: il10ra_site1_normal_mot_HHH_b1_00999_000000080_0001_41_55_H_._HHH_b2_01363_af2_0001_0000200003_0000001_0 (protein)
chain: SSSSSSEEVEERVEELLEEAKHIEDPREAMRVLLEALQIAIENNNEELLQEVWRIIKELGSSSSS
B22: il10ra_site1_sap_19_mot_HHH_b1_04704_af2_000000076_0001_43_57_H_._HHH_b2_05647_0001_0000200009_0000001_0_0001 (protein)
chain: SSSSEEAYEIVHEANRQAIELAEEGDPEEARKLLEEALELLEEAGNFSAVFALRHSLRRQVSSSS
B23: il10ra_site1_normal_mot_HHH_b2_03220_af2_000000223_0001_23_40_H_._HHH_b2_03020_af2_0001_0000100003_0000001_0 (protein)
chain: SSSSSSDEREEVWELLRKALHIEDEEEARRIVEKAEELAEELGSELLVIQARFLLRNLSSSSSSS
B24: il10ra_site1_sap_17_mot_HHH_b1_00999_000000080_0001_41_55_H_._HHH_b2_05434_0001_0000300025_0000001_0_0001 (protein)
chain: SSSSDEEVRELLREAEELVEEGDPEEAAKLLQEAVQFAIHLKDAELLREVWEVVRRIAERRSSSS
B25: il10ra_site1_sap_20_mot_HHH_b1_06804_000000054_0001_40_54_H_._HHH_b2_07125_0001_0000200015_0000001_0_0001 (protein)
chain: SSSSSSSEAVHLSLEAFRLALRGNPEEAEKVLEEALEIAEEENDPIAEIIEDLLRAIGSSSSSSS
B26: il10ra_site1_sap_16_mot_HHH_b2_00984_000000042_0001_1_20_H_._4c4ac6cabe4c261757e68d3976ab26f5_0001_af2_0001_0000600027_0000001_0_0001_af2pred_0001 (protein)
chain: SSSSDDDERFIELTLRFAKWLIEQGDEEAAKFFLKAAIEQAERLNDEEILEELERLLQELSSSSS
B27: il10ra_site1_sap_22_mot_HHH_b1_06789_af2_000000041_0001_1_20_H_._HHH_b2_01051_af2_0001_0000500011_0000001_0_0001 (protein)
chain: SSSSDELERLLEELEEAVEEGDEELVLRLQHRVLRLAIQLSDEEVFQAVWRLYKEFAKRRSSSSS
B28: il10ra_site1_normal_mot_HHH_b1_05370_000000138_0001_1_16_H_._HHH_b1_04757_af2_0001_0000100005_0000001_0_af2pred_dldesign_0_af2pred (protein)
chain: SSSSSEAEELFEKTTKELKALLAAGKVDEAYKLLKEAIEKLVELNAPELARALANLFLEGSSSSS
B29: il10ra_site1_sap_17_mot_HHH_b2_02354_af2_000000157_0001_40_56_H_._HHH_b1_04654_af2_0001_0000300021_0000001_0_0001 (protein)
chain: SSSSDEEIREEVERLLEEAKHIEDAQEAYELLKRAIELAIELGDPELERLVHEVIREWLKKSSSS
B30: il10ra_site1_sap_15_mot_bc09c72237e61002eddc20b9c710af39_0001_1_000000219_0001_36_50_H_._HHH_b1_00619_af2_0001_0000100004_0000001_0_0001 (protein)
chain: SSSSSLSQRVIETLREVARLINEGNPEEAEELLERLLEEVEKAGNRLLEVQVRFMLRLERSSSSS
B31: il10ra_site1_sap_23_mot_HHH_b1_07211_af2_000000161_0001_24_40_H_._HHH_b2_05770_af2_0001_0000200004_0000001_0_0001 (protein)
chain: SSSSSDSVVRLIAEAVRAAMHKGDREALQELWELVHKLGNGITSEEEAQEIAERILEELGSSSSS
B32: il10ra_site1_sap_25_mot_HHH_b1_05937_af2_000000262_0001_20_37_H_._HHH_b1_06457_af2_0001_0000100002_0000001_0_0001 (protein)
chain: SSSSQEWFEEVKKLIELIIEAQREGDEELVKELLERLRELIEEAGSWSLRHDLKMLEEMLNSSSS
B33: il10ra_site1_sap_20_mot_HHH_b2_06321_af2_000000133_0001_42_55_H_._HHH_b1_07996_af2_0001_0000400031_0000002_0_0001 (protein)
chain: SSSSDREEAEELFQLVWEAIKKGDKELLEKLEEEVEELLKETGDPNVRALLELIRLALEVLSSSS
B34: il10ra_site1_normal_mot_HHH_b2_00984_000000042_0001_1_20_H_._HHH_b2_06760_af2_0001_0000300021_0000001_0 (protein)
chain: SSSSDEEREELEELIRELRELLENGDPERALRVAQEAIRLAFRSNDPELLQELWEVIKRHFSSSS
B35: il10ra_site1_normal_mot_HHH_b2_02053_af2_000000006_0001_3_19_H_._HHH_b1_04635_af2_0001_0000400020_0000002_0 (protein)
chain: SSSSDEATEEVYELLREALELRAQGNPEEAEEVLRRAEELAEEKNNRVLLIAVEFLLRELSSSSS
B36: il10ra_site1_sap_19_mot_HHH_b1_01821_000000158_0001_23_39_H_._HHH_b2_02252_af2_0001_0000200016_0000002_0_0001 (protein)
chain: SSSSTEELYKLLRRIVELLHEGNVEEAKELIEEVKELAEENNDQLFLKNVEHLERDLRRLGSSSS
B37: il10ra_site1_normal_mot_HHH_b1_01779_000000096_0001_43_57_H_._HHH_b2_08219_0001_0000100005_0000001_0_af2pred_0001 (protein)
chain: SSSSNKEEAERSVRLLLELAKRLEDPERARAALRDARRTAEYVNDPELEELVEEVEREVLSSSSS

Biological target: il10ra, Q13651
Test: yeast display titration

Apparent Kd, inactive:
B1 no binding seen
B2 no binding seen
B3 > 3.36 µM
B4 no binding seen
B5 no binding seen
B6 no binding seen
B7 no binding seen
B8 no binding seen
B9 no binding seen
B10 no binding seen
B11 no binding seen
B12 no binding seen
B13 no binding seen
B14 no binding seen
B15 no binding seen
B16 no binding seen
B17 no binding seen
B18 no binding seen
B19 no binding seen
B20 no binding seen
B21 no binding seen
B22 no binding seen
B23 no binding seen
B24 no binding seen
B25 no binding seen
B26 no binding seen
B27 no binding seen
B28 no binding seen
B29 no binding seen
B30 no binding seen
B31 no binding seen
B32 no binding seen
B33 no binding seen
B34 no binding seen
B35 no binding seen
B36 no binding seen
B37 no binding seen

Random excerpt: two records from the list
Apparent Kd, inactive:
B24 no binding seen
B10 no binding seen
